# According to article PMC11722412:
# Protein sequences, listed by entry. Tags and fused reporters are not part of them. Lines headed by an entry give the natural chain unless they say otherwise; changes in a name come on top.
# UniProt Q95X71: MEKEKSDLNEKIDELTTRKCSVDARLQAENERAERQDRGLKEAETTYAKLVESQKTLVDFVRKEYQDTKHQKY
# No constants are given. Whether binding was seen depends on the method and setting. A result given as binding can be weak or reduced; the word gives no strength.
# B1: ZYG-1 (enzyme, UniProt Q9GT24 1-706)
# chain: MSGGKSGSRLSAYSHLKEIGKGGFGVVYAAQRENGEKVAIKRIDKKVPKNRVWTEIQTMKELKKSKYVVEFYEDFVEDGYTYIVMELCEGGSLQAYVREHGALDDATAVHVLRQLISAVSFMHRVNVIHRDLSAGNVFIKDSKKKKMTVKLGDFGLATTLGRGETTCTIVGTPGFIAPQVYDQEYTQSADVYSLGAVLYTMLTARNPPPKGLPPTCGMSPNAARLVEQMMDTDAKKRIPLTQIVLSEFMYENTNENAVIFSREHSRDGRRQRSREPVRSSRDDRSRDGRALIRSSSQPAHSGRAPLSNRPIHDRMPSTSSRGFDSERGRERDRDSGRGTVPPSREDRNRSQLWPIRMDRLEGQRVCTAGGRYIVELDTRCRFEVAAQGNFVKRILIVEVDEMVQTVYVHRIPDRTVRGRNGEEELITLTNNPFVYTSYSQMPKEVQNDYMRLQKMVAVTISGRVAKVTFRRPSQFPDAQAQLMENGDLRIKLPRSVIVRKMDNGEIFNCIDGIATQKQAVSGITLTKVNEVYKYLIRFEQCLNGMDRGMVCFPIVFSAGTNMVGSSPSSLMPSGSSQTSRFPFSNLSNNQPSLVPHSAPFLTKPTSSQRASSANVQRRVSTDENSSPSVAPSKYKIKIDPTTQKVRSIQATDGRVLRCSTSKADQFIFTDPAIRPDDQRFMRTDRVPDRASEMLHTLCERMRKLHQ
# Target: SSNA-1, the Caenorhabditis elegans ortholog of Sjogren's Syndrome Nuclear Antigen 1 (C. elegans) (UniProt Q95X71)
# Experiment: co-sedimentation; purified proteins; SSNA-1 filaments (10 μM) or GMPCPP microtubules (10 μM) incubated 10 min at room temperature with ZYG-1 or BSA (1.25 μM), 30 μL; 80,000 rpm (278,088 x g), TLA-120.2, 10 min, 25°C; soluble and pellet fractions by SDS-PAGE and immunoblotting; in triplicate; both purified
binder,measurement,value
B1,binding,binds
